Assay: general procedure: hybrid (solid and solution phase) peptide synthesis; Fmoc-L-Lys(Boc)-Wang resin; HBTU, iPr2NEt
Conditions: whole synthesis, overall, scale of the general procedure 0.68 mmol

Substance | isolated yield
2-(((3S,6S,14S)-6-acetamido-3-isobutyl-2,5,8-trioxo-1,4,9-triazacyclotetradecane-14-carbonyl)-L-arginyl)-N—((R)-1-amino-3-methyl-1-oxobutan-2-yl)benzo[d]thiazole-6-carboxamide | 50%
(2S,5S,13S)-13-acetamido-N—((S)-1-(benzo[d]thiazol-2-yl)-5-guanidino-1-oxopentan-2-yl)-2-isobutyl-3,7,14-trioxo-1,4,8-triazacyclotetradecane-5-carboxamide | 32%
(2S,5S,13S)-13-amino-N—((S)-1-(benzo[d]thiazol-2-yl)-5-guanidino-1-oxopentan-2-yl)-2-isobutyl-3,7,14-trioxo-1,4,8-triazacyclotetradecane-5-carboxamide | 32%
(2S,5S,14S)-14-acetamido-N—((S)-1-(benzo[d]thiazol-2-yl)-5-guanidino-1-oxopentan-2-yl)-2-(3-guanidinopropyl)-3,8,15-trioxo-1,4,9-triazacyclopentadecane-5-carboxamide | 35%
(2S,5S,14S)-14-acetamido-N—((S)-1-(benzo[d]thiazol-2-yl)-5-guanidino-1-oxopentan-2-yl)-2-isobutyl-3,8,15-trioxo-1,4,9-triazacyclopentadecane-5-carboxamide | 32%
(2S,5S,14S)-14-acetamido-N—((S)-1-(benzo[d]thiazol-2-yl)-5-guanidino-1-oxopentan-2-yl)-2-isobutyl-3,11,15-trioxo-1,4,10-triazacyclopentadecane-5-carboxamide | 34%
(3S,6S,14S)-6-acetamido-3-(2-amino-2-oxoethyl)-N—((S)-1-(benzo[d]thiazol-2-yl)-5-guanidino-1-oxopentan-2-yl)-2,5,8-trioxo-1,4,9-triazacyclotetradecane-14-carboxamide | 41%
(3S,6S,14S)-6-acetamido-3-(3-amino-3-oxopropyl)-N—((S)-1-(benzo[d]thiazol-2-yl)-5-guanidino-1-oxopentan-2-yl)-2,5,8-trioxo-1,4,9-triazacyclotetradecane-14-carboxamide | 30%
(3S,6S,14S)-6-acetamido-N—((S)-1-(benzo[d]thiazol-2-yl)-5-guanidino-1-oxopentan-2-yl)-3-(2-(methylthio)ethyl)-2,5,8-trioxo-1,4,9-triazacyclotetradecane-14-carboxamide | 45%
(3S,6S,14S)-6-acetamido-N—((S)-1-(benzo[d]thiazol-2-yl)-5-guanidino-1-oxopentan-2-yl)-3-(4-hydroxybenzyl)-2,5,8-trioxo-1,4,9-triazacyclotetradecane-14-carboxamide | 38%
(3S,6S,14S)-6-acetamido-N—((S)-1-(benzo[d]thiazol-2-yl)-5-guanidino-1-oxopentan-2-yl)-3-((S)-1-hydroxyethyl)-2,5,8-trioxo-1,4,9-triazacyclotetradecane-14-carboxamide | 35%
(3S,6S,14S)-6-acetamido-N—((S)-1-(benzo[d]thiazol-2-yl)-5-guanidino-1-oxopentan-2-yl)-3-benzyl-2,5,8-trioxo-1,4,9-triazacyclotetradecane-14-carboxamide | 45%
(3S,6S,14S)-6-acetamido-N—((S)-1-(benzo[d]thiazol-2-yl)-5-guanidino-1-oxopentan-2-yl)-3-isobutyl-2,5,8-trioxo-1,4,9-triazacyclotetradecane-14-carboxamide | 55%
(3S,6S,14S)-6-acetamido-N—((S)-1-(benzo[d]thiazol-2-yl)-5-guanidino-1-oxopentan-2-yl)-3-isopropyl-2,5,8-trioxo-1,4,9-triazacyclotetradecane-14-carboxamide | 45%
(3S,6S,14S)-6-acetamido-N—((S)-1-(benzo[d]thiazol-2-yl)-5-guanidino-1-oxopentan-2-yl)-3-methyl-2,5,8-trioxo-1,4,9-triazacyclotetradecane-14-carboxamide | 45%
(3S,6S,14S)-6-acetamido-N—((S)-5-guanidino-1-oxo-1-(thiazol-2-yl)pentan-2-yl)-3-isobutyl-2,5,8-trioxo-1,4,9-triazacyclotetradecane-14-carboxamide | 55%
(3S,6S,14S)-6-amino-N—((S)-1-(benzo[d]thiazol-2-yl)-5-guanidino-1-oxopentan-2-yl)-3-isobutyl-2,5,8-trioxo-1,4,9-triazacyclotetradecane-14-carboxamide | 30%
(6S,14S)-6-acetamido-N—((S)-1-(benzo[d]thiazol-2-yl)-5-guanidino-1-oxopentan-2-yl)-2,5,8-trioxo-1,4,9-triazacyclotetradecane-14-carboxamide | 42%

Source: patent US12590123B2 (Washington University, priority 2019, dated 2026)
